# Assay results published in PubChem BioAssay AID1487 (National Center for Advancing Translational Sciences (NCATS), 2009).
# Some of the results follow. Shown are side measurements of this screen, not its main read-out; they come without a call. Compounds called inactive in the main read-out are mostly missing here. Words in brackets tell the shape of the fitted curve; partial curves, single points and poor fits give uncertain potencies.
# Assay: qHTS Assay for Modulators of Lamin A Splicing
# Conditions: HeLa LMNA splicing GFP/RFP minigene ratio, 48 h
# Outline: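 S3 HeLa stable clones carrying a lamin A-EGFP splicing minigene plus DsRed2 were seeded at 600 cells/well in Opti-MEM with 2% FBS, pin-dosed and incubated 48 h at 37°C. Acumen cytometry (488 nm) gave the GFP/RFP total-intensity ratio.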
# [1] = measured here: GFP splicing reporter channel
# [2] = measured here: RFP viability control channel
structure (smiles),measurement,setting,value
CCN(CC)C(=O)CSc1ncnc2sc(-c3ccccc3)cc12,AC50,[1],"22.4 µM [rising, partial curve, poor fit]"
same,AC50,[2],"25.1 µM [rising, single point]"
CCOc1cc(/C=N/NC(=O)c2cc(-c3cccnc3)nc3ccccc23)ccc1O,AC50,[2],"0.0158 µM [rising, full curve]"
CC(=O)[C@]1(O)Cc2c(O)c3c(c(O)c2[C@@H](O[C@H]2C[C@H](N)[C@H](O)[C@H](C)O2)C1)C(=O)c1ccccc1C3=O,AC50,[1],"0.631 µM [falling, full curve]"
same,AC50,[2],"0.316 µM [falling, full curve]"
CCCOC(=O)c1ccc(Oc2c(-c3ccc(OC)cc3O)n[nH]c2C)cc1,AC50,[1],"17.8 µM [falling, single point]"
same,AC50,[2],"35.5 µM [falling, single point]"
O=C(/C=C/c1cccc([N+](=O)[O-])c1)NCCSCc1ccc(Cl)cc1,AC50,[2],"11.2 µM [rising, partial curve, poor fit]"
Cc1ccccc1OCCOc1ccccc1C=C(C#N)C#N,AC50,[1],"12.6 µM [falling, partial curve]"
O=C(OCn1ncc(Br)c(Br)c1=O)c1ccc(F)cc1,AC50,[2],"6.31 µM [falling, single point]"
C=CCc1cccc(CNc2nc3ccccc3n2C(C)C)c1O,AC50,[2],"12.6 µM [rising, partial curve]"
Cc1ccc(N(C)C(=O)c2ccc3c(Cl)c4c(nc3c2)CCC4)cc1C,AC50,[1],"14.1 µM [rising, single point]"
same,AC50,[2],"17.8 µM [rising, partial curve]"
OCc1nc2ccccc2n1CC(O)Cn1ccc2ccccc21 (stereo not given),AC50,[1],"12.6 µM [rising, partial curve]"
same,AC50,[2],"11.2 µM [rising, partial curve]"
Oc1[nH]c(=S)sc1/C=C1\C(c2ccccc2)=Nc2ccccc21,AC50,[2],"12.6 µM [rising, partial curve]"
O=C1CC(c2ccc3c(c2)OCO3)c2cc3c(cc2N1)OCO3 (stereo not given),AC50,[1],"11.2 µM [rising, partial curve, poor fit]"
same,AC50,[2],"15.8 µM [rising, single point]"
Cc1cc(OC(=O)c2ccccc2Br)cc(=O)n1C,AC50,[1],"20 µM [falling, single point]"
same,AC50,[2],"31.6 µM [falling, single point]"
O=[N+]([O-])c1cccc(N/N=C/c2cccc(O)c2O)c1,AC50,[1],"35.5 µM [rising, single point]"
same,AC50,[2],"31.6 µM [rising, single point]"
COc1ccc(N(Cc2cccs2)C(=O)COc2cccc(C)c2C)cc1,AC50,[2],"0.00631 µM [falling, full curve, poor fit]"
CCOC(=O)N1CCN(C(=O)CSc2nnc(-c3ccc(C(C)(C)C)cc3)o2)CC1,AC50,[2],"20 µM [rising, partial curve, poor fit]"
Cc1nnc(-c2ccc(Oc3ccc(Br)cc3)c([N+](=O)[O-])c2)o1,AC50,[1],"12.6 µM [rising, single point]"
same,AC50,[2],"17.8 µM [rising, single point]"
CCOc1ccc(-n2ccnc2SCC(=O)Nc2cccc3ccccc23)cc1,AC50,[1],"1 µM [falling, full curve]"
same,AC50,[2],"1.26 µM [falling, full curve]"
O=C(CSc1nnc(Cn2nnc3ccccc32)o1)N(Cc1ccc(Cl)cc1)c1ccccc1,AC50,[2],"2.82 µM [rising, partial curve]"
Nc1nonc1-c1nc2ccccc2n1Cc1ccccc1,AC50,[2],"1 µM [falling, partial curve]"
Cc1ccnc(-n2c(C)cc(C=O)c2C)c1,AC50,[2],"1.41 µM [falling, full curve, poor fit]"
COc1cccc(NC(=O)Cn2c(=O)n(-c3cc(OC)c(OC)c(OC)c3)c(=O)c3ccccc32)c1,AC50,[1],"2 µM [rising, partial curve]"
same,AC50,[2],"3.55 µM [rising, partial curve, poor fit]"
COc1ccccc1C1N(c2ccc(Cl)cc2)C(=O)C2CCCN21 (stereo not given),AC50,[1],"7.94 µM [falling, partial curve]"
Cc1ccc(C(=O)NC(=S)NCCCN2CCOCC2)cc1,AC50,[1],"15.8 µM [falling, partial curve, poor fit]"
same,AC50,[2],"10 µM [falling, partial curve]"
Cc1ccc(Nc2c3c(nc4nc(-c5cccs5)nn24)CCCC3)cc1F,AC50,[2],"35.5 µM [rising, single point]"
COc1ccc(N2C(=O)CSC23C(=O)N(Cc2cccc(C(F)(F)F)c2)c2ccccc23)cc1 (stereo not given),AC50,[2],"0.00355 µM [falling, full curve, poor fit]"
CN1C(=O)/C(=C\c2ccc(-c3ccccc3)o2)SC1=S,AC50,[1],"2.82 µM [falling, partial curve]"
same,AC50,[2],"0.562 µM [falling, full curve, poor fit]"
CCCOC(=O)CCNc1n[nH]c(=O)[nH]c1=O,AC50,[1],"0.02 µM [rising, full curve]"
Nc1nc(-c2ccccn2)nc(N)c1Cc1ccc(Cl)cc1Cl,AC50,[2],"12.6 µM [rising, partial curve, poor fit]"
COc1ccccc1-c1nc(C#N)c(N2CCN(Cc3ccccc3)CC2)o1,AC50,[2],"11.2 µM [rising, partial curve]"
CCOC(=O)Cn1nc(C)c(NC(=O)COc2ccccc2)c1C,AC50,[1],"0.02 µM [rising, full curve]"
same,AC50,[2],"0.0282 µM [rising, full curve, poor fit]"
Cc1ccc(OCCN2CCN(C(=O)CCC(=O)Nc3nnc(C(C)C)s3)CC2)cc1,AC50,[1],"10 µM [rising, partial curve]"
same,AC50,[2],"7.94 µM [rising, partial curve]"
Fc1ccc(COc2ccccc2C(=S)N2CCCC2)cc1,AC50,[1],"12.6 µM [rising, single point]"
COC(=O)[C@H]1[C@@H](C)N(CCc2cc(OC)c(OC)c(OC)c2)C(=O)N[C@H]1c1ccccc1,AC50,[1],"0.000891 µM [rising, full curve, poor fit]"
Cc1ccc(C(=O)c2ccccc2C(=O)OCC(=O)NC(=O)NC(C)(C)C)cc1,AC50,[1],"35.5 µM [falling, partial curve]"

# Fetched one by one from the entries so far, 3 records:
structure (smiles),measurement,setting,value
CCN(CC)C(=O)CSc1ncnc2sc(-c3ccccc3)cc12,AC50,[1],"22.4 µM [rising, partial curve, poor fit]"
O=C1CC(c2ccc3c(c2)OCO3)c2cc3c(cc2N1)OCO3 (stereo not given),AC50,[1],"11.2 µM [rising, partial curve, poor fit]"
Oc1[nH]c(=S)sc1/C=C1\C(c2ccccc2)=Nc2ccccc21,AC50,[2],"12.6 µM [rising, partial curve]"
